± gives the standard deviation of the averaged measurements. The reference is the same well before dosing, and untreated signal decays as well.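 Labels refer to human fibroblasts, largely primary: uterine (C12385, HUF), lung (H6013), bone (Hs27A), adrenal (HADF), skin (WS1), plus mammary HMF and breast cancer-associated Hs343T. Cancer lines are basal-like or mesenchymal-like triple-negative breast cancer. The paper counts as hits responses shifting over 3x the replicate standard deviation. The tissue of the other fibroblasts is not given here.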
Test system: MDAMB436
Test: relative JC-1 red fluorescence (viability) vs pre-drug, coculture with fibroblast (fraction); higher = more viable cancer cells
Experimental: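 JC-1 labelled TNBC cells cocultured 1:1 (1,500 cells each) with CellTrace Violet stained primary or stromal fibroblasts in 384-well plates in FluoroBrite medium, treated with one of 42 anticancer drugs at 0.1, 1, 10 or 100 uM. JC-1 red fluorescence (mitochondrial integrity in cancer cells only) was read by plate reader every 8 h for 72 h. Values are normalised to each well's pre-drug value. The stock of one drug was tenfold lower, so its dose labels may be too high.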

C=C1C[C@@H]2[C@H](CC[C@]3(C)C(=O)CC[C@@H]23)[C@@]2(C)C=CC(=O)C=C12 [Exemestane]
relative JC-1 red fluorescence
Settings | 8 h | 16 h | 24 h | 32 h | 40 h | 48 h | 56 h | 64 h | 72 h
0.1 µM, coculture fibroblast: C12385 | 0.838 ± 0.027 | 0.691 ± 0.054 | 0.703 ± 0.054 | 0.628 ± 0.066 | 0.578 ± 0.061 | 0.558 ± 0.059 | 0.545 ± 0.056 | 0.538 ± 0.052 | 0.533 ± 0.053
0.1 µM, coculture fibroblast: H6013 | 0.871 ± 0.043 | 0.743 ± 0.056 | 0.754 ± 0.069 | 0.756 ± 0.073 | 0.757 ± 0.083 | 0.786 ± 0.086 | 0.758 ± 0.089 | 0.756 ± 0.088 | 0.711 ± 0.1
0.1 µM, coculture fibroblast: H6019 | 0.725 ± 0.013 | 0.612 ± 0.01 | 0.588 ± 0.026 | 0.51 ± 0.018 | 0.472 ± 0.018 | 0.454 ± 0.023 | 0.42 ± 0.023 | 0.399 ± 0.023 | 0.374 ± 0.018
0.1 µM, coculture fibroblast: H6076 | 0.727 ± 0.013 | 0.632 ± 0.033 | 0.612 ± 0.035 | 0.581 ± 0.049 | 0.576 ± 0.041 | 0.543 ± 0.041 | 0.563 ± 0.041 | 0.548 ± 0.044 | 0.548 ± 0.044
0.1 µM, coculture fibroblast: H6231 | 0.775 ± 0.028 | 0.712 ± 0.025 | 0.685 ± 0.0095 | 0.613 ± 0.013 | 0.578 ± 0.025 | 0.544 ± 0.026 | 0.525 ± 0.043 | 0.509 ± 0.035 | 0.473 ± 0.033
0.1 µM, coculture fibroblast: HADF | 0.824 ± 0.017 | 0.7208 ± 0.0021 | 0.691 ± 0.014 | 0.663 ± 0.008 | 0.65276 ± 0.00018 | 0.665 ± 0.0087 | 0.614 ± 0.011 | 0.603 ± 0.016 | 0.565 ± 0.015
0.1 µM, coculture fibroblast: HCFa | 0.82 ± 0.028 | 0.703 ± 0.013 | 0.692 ± 0.0077 | 0.678 ± 0.013 | 0.643 ± 0.013 | 0.6476 ± 0.0016 | 0.584 ± 0.0064 | 0.5662 ± 0.0024 | 0.515 ± 0.012
0.1 µM, coculture fibroblast: HCPF | 0.761 ± 0.0089 | 0.684 ± 0.028 | 0.657 ± 0.014 | 0.598 ± 0.0092 | 0.586 ± 0.014 | 0.553 ± 0.016 | 0.53 ± 0.013 | 0.501 ± 0.0078 | 0.4838 ± 0.0035
0.1 µM, coculture fibroblast: HHSteC | 0.8277 ± 0.0066 | 0.737 ± 0.0091 | 0.7219 ± 0.002 | 0.7002 ± 0.0038 | 0.693 ± 0.012 | 0.705 ± 0.0073 | 0.645 ± 0.0079 | 0.632 ± 0.011 | 0.571 ± 0.012
0.1 µM, coculture fibroblast: HMF | 0.774 ± 0.018 | 0.6575 ± 0.0054 | 0.619 ± 0.015 | 0.581 ± 0.021 | 0.56 ± 0.034 | 0.534 ± 0.03 | 0.53 ± 0.036 | 0.51 ± 0.046 | 0.501 ± 0.043
0.1 µM, coculture fibroblast: HPFa | 0.894 ± 0.024 | 0.84 ± 0.078 | 0.791 ± 0.089 | 0.766 ± 0.12 | 0.751 ± 0.13 | 0.763 ± 0.13 | 0.667 ± 0.13 | 0.631 ± 0.13 | 0.548 ± 0.13
0.1 µM, coculture fibroblast: HUF | 0.846 ± 0.018 | 0.721 ± 0.028 | 0.694 ± 0.025 | 0.625 ± 0.026 | 0.57 ± 0.019 | 0.545 ± 0.027 | 0.516 ± 0.028 | 0.504 ± 0.027 | 0.498 ± 0.025
0.1 µM, coculture fibroblast: Hs5 | 0.812 ± 0.05 | 0.703 ± 0.055 | 0.683 ± 0.029 | 0.625 ± 0.029 | 0.6094 ± 0.004 | 0.568 ± 0.011 | 0.571 ± 0.0072 | 0.541 ± 0.016 | 0.523 ± 0.014
0.1 µM, coculture fibroblast: Hs27A | 0.77 ± 0.032 | 0.705 ± 0.04 | 0.667 ± 0.051 | 0.651 ± 0.062 | 0.62 ± 0.064 | 0.68 ± 0.071 | 0.589 ± 0.064 | 0.57 ± 0.064 | 0.49 ± 0.054
0.1 µM, coculture fibroblast: Hs343T | 0.7867 ± 0.0055 | 0.692 ± 0.049 | 0.643 ± 0.063 | 0.597 ± 0.073 | 0.564 ± 0.08 | 0.524 ± 0.076 | 0.505 ± 0.064 | 0.484 ± 0.065 | 0.471 ± 0.06
0.1 µM, coculture fibroblast: WS1 | 0.8057 ± 0.0049 | 0.656 ± 0.012 | 0.653 ± 0.038 | 0.568 ± 0.031 | 0.52 ± 0.032 | 0.498 ± 0.037 | 0.471 ± 0.038 | 0.442 ± 0.032 | 0.432 ± 0.033
1 µM, coculture fibroblast: C12385 | 0.796 ± 0.012 | 0.6675 ± 0.0044 | 0.665 ± 0.008 | 0.58 ± 0.018 | 0.538 ± 0.019 | 0.508 ± 0.018 | 0.495 ± 0.018 | 0.488 ± 0.016 | 0.479 ± 0.015
1 µM, coculture fibroblast: H6013 | 0.831 ± 0.057 | 0.738 ± 0.021 | 0.734 ± 0.026 | 0.722 ± 0.031 | 0.702 ± 0.029 | 0.73 ± 0.033 | 0.7 ± 0.02 | 0.684 ± 0.032 | 0.646 ± 0.036
1 µM, coculture fibroblast: H6019 | 0.7536 ± 0.00082 | 0.658 ± 0.02 | 0.654 ± 0.0076 | 0.58 ± 0.0085 | 0.5442 ± 0.001 | 0.525 ± 0.0093 | 0.492 ± 0.0059 | 0.462 ± 0.011 | 0.438 ± 0.014
1 µM, coculture fibroblast: H6076 | 0.783 ± 0.018 | 0.651 ± 0.028 | 0.641 ± 0.039 | 0.594 ± 0.039 | 0.567 ± 0.039 | 0.543 ± 0.037 | 0.55 ± 0.047 | 0.554 ± 0.044 | 0.552 ± 0.041
1 µM, coculture fibroblast: H6231 | 0.7911 ± 0.004 | 0.72371 ± 0.00052 | 0.71 ± 0.011 | 0.654 ± 0.015 | 0.621 ± 0.013 | 0.584 ± 0.0064 | 0.569 ± 0.015 | 0.54 ± 0.011 | 0.519 ± 0.0091
1 µM, coculture fibroblast: HADF | 0.823 ± 0.015 | 0.7209 ± 0.0044 | 0.698 ± 0.024 | 0.665 ± 0.042 | 0.644 ± 0.065 | 0.66 ± 0.08 | 0.61 ± 0.085 | 0.602 ± 0.087 | 0.562 ± 0.087
1 µM, coculture fibroblast: HCFa | 0.818 ± 0.011 | 0.716 ± 0.027 | 0.704 ± 0.032 | 0.662 ± 0.028 | 0.645 ± 0.027 | 0.66 ± 0.023 | 0.588 ± 0.02 | 0.575 ± 0.018 | 0.515 ± 0.0098
1 µM, coculture fibroblast: HCPF | 0.8056 ± 0.0059 | 0.735 ± 0.016 | 0.718 ± 0.039 | 0.663 ± 0.028 | 0.635 ± 0.038 | 0.604 ± 0.042 | 0.58 ± 0.053 | 0.56 ± 0.049 | 0.539 ± 0.057
1 µM, coculture fibroblast: HHSteC | 0.834 ± 0.021 | 0.7515 ± 0.0009 | 0.726 ± 0.0078 | 0.684 ± 0.0099 | 0.671 ± 0.01 | 0.677 ± 0.0099 | 0.608 ± 0.011 | 0.584 ± 0.021 | 0.53 ± 0.022
1 µM, coculture fibroblast: HMF | 0.799 ± 0.026 | 0.692 ± 0.056 | 0.7 ± 0.12 | 0.667 ± 0.14 | 0.646 ± 0.15 | 0.625 ± 0.16 | 0.626 ± 0.18 | 0.618 ± 0.18 | 0.61 ± 0.21
1 µM, coculture fibroblast: HPFa | 0.8768 ± 0.0024 | 0.81 ± 0.021 | 0.793 ± 0.045 | 0.745 ± 0.043 | 0.725 ± 0.061 | 0.731 ± 0.059 | 0.637 ± 0.053 | 0.596 ± 0.05 | 0.51 ± 0.038
1 µM, coculture fibroblast: HUF | 0.859 ± 0.019 | 0.729 ± 0.019 | 0.71 ± 0.031 | 0.64 ± 0.042 | 0.585 ± 0.039 | 0.564 ± 0.055 | 0.539 ± 0.06 | 0.526 ± 0.064 | 0.513 ± 0.065
1 µM, coculture fibroblast: Hs5 | 0.806 ± 0.035 | 0.685 ± 0.011 | 0.6635 ± 0.0038 | 0.6093 ± 0.00073 | 0.5979 ± 0.0034 | 0.559 ± 0.01 | 0.558 ± 0.02 | 0.539 ± 0.03 | 0.519 ± 0.046
1 µM, coculture fibroblast: Hs27A | 0.802 ± 0.017 | 0.746 ± 0.016 | 0.747 ± 0.058 | 0.739 ± 0.081 | 0.72 ± 0.095 | 0.79 ± 0.094 | 0.687 ± 0.11 | 0.676 ± 0.11 | 0.593 ± 0.12
1 µM, coculture fibroblast: Hs343T | 0.79 ± 0.0083 | 0.6557 ± 0.0029 | 0.64 ± 0.011 | 0.60249 ± 0.00033 | 0.568 ± 0.0057 | 0.537 ± 0.01 | 0.5229 ± 0.0044 | 0.5083 ± 0.0034 | 0.506 ± 0.0052
1 µM, coculture fibroblast: WS1 | 0.806 ± 0.011 | 0.676 ± 0.0096 | 0.674 ± 0.03 | 0.603 ± 0.029 | 0.56 ± 0.045 | 0.535 ± 0.052 | 0.507 ± 0.063 | 0.485 ± 0.068 | 0.48 ± 0.075

Source: the supplement of paper PMC6078165
